{"sequences": {"note": "Amino acid sequences for entries named in this document (tags omitted).", "UniProt P08483, whole entry": "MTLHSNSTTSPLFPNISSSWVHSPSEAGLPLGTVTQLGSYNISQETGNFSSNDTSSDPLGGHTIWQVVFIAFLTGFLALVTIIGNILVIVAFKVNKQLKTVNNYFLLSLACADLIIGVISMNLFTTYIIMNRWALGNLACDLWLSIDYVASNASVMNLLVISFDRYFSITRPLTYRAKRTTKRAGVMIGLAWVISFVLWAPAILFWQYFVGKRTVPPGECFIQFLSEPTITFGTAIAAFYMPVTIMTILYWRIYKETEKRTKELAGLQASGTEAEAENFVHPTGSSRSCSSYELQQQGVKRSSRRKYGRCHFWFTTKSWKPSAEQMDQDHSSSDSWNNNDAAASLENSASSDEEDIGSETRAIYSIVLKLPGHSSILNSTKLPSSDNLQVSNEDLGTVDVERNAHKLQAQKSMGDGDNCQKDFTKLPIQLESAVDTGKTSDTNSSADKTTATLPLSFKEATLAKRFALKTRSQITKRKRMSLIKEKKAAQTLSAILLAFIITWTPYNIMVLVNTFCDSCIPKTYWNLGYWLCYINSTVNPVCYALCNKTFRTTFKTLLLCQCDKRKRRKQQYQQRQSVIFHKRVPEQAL"}, "source": "BindingDB's records for PubMed 2250662", "about": "(Glaxo Group Research, 1990)", "key": {"[1]": {"target": "T1, Muscarinic acetylcholine receptor M2 (Rattus norvegicus, UniProt P10980)", "T1 sequence (P10980 whole entry)": "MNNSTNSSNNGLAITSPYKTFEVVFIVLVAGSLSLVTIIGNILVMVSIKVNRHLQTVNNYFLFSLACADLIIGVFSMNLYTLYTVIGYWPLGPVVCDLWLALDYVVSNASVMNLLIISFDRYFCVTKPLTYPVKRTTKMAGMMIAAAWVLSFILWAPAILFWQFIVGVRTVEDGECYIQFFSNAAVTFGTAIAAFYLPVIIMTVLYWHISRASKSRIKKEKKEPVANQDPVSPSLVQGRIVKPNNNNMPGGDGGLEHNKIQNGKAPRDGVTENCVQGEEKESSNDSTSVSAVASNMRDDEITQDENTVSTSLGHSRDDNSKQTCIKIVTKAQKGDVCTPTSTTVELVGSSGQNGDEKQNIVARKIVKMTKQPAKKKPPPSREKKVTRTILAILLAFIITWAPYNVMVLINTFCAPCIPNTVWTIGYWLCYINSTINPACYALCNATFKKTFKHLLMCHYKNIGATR"}, "[2]": {"target": "Muscarinic acetylcholine receptor M3 (Rattus norvegicus, UniProt P08483)"}, "[3]": {"target": "T2, Muscarinic acetylcholine receptor M4 (Gallus gallus, UniProt P17200)", "T2 sequence (P17200 whole entry)": "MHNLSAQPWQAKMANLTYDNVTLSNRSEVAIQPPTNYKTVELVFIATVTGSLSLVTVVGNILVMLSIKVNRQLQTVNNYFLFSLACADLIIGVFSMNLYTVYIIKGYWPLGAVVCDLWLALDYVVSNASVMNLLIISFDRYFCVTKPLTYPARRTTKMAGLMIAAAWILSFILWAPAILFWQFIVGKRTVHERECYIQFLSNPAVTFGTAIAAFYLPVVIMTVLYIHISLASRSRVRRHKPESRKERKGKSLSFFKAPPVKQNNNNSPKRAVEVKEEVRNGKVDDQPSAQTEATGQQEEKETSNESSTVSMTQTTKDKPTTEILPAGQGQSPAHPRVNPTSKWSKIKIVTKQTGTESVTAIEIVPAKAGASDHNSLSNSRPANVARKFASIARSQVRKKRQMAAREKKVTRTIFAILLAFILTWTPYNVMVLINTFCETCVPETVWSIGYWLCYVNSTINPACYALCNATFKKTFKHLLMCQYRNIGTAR"}, "[4]": {"target": "T3, Muscarinic acetylcholine receptor (Oryctolagus cuniculus, UniProt A0A5F9DUN4)", "T3 sequence (A0A5F9DUN4 whole entry)": "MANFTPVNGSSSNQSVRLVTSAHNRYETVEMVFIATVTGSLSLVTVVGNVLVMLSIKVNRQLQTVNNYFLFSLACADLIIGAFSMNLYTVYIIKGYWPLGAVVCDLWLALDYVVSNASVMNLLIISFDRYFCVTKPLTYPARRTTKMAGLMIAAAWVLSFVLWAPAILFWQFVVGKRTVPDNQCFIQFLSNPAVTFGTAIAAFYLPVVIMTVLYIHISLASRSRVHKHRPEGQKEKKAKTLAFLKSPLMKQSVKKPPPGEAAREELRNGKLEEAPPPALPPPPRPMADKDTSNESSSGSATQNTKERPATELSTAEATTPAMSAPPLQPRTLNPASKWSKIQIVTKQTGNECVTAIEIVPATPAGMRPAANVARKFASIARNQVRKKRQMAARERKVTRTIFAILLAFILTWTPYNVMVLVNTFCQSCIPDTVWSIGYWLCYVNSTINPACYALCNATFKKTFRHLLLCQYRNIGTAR"}}}
{"smiles": "CN1[C@@H]2CC[C@H]1CC(OC(=O)[C@H](O)c1ccccc1)C2", "note": "(some centres undefined) [CAS_87-00-3]", "values": [{"measurement": "Ki", "setting": "[1]", "value": 0.166, "unit": "µM"}, {"measurement": "Ki", "setting": "[2]", "value": 0.0589, "unit": "µM"}, {"measurement": "Ki", "setting": "[3]", "value": 0.0724, "unit": "µM"}, {"measurement": "Ki", "setting": "[4]", "value": 0.0251, "unit": "µM"}]}
